Test results: PubChem BioAssay AID1688 (National Center for Advancing Translational Sciences (NCATS), 2009)
In all, about 220,000 compounds went through this assay and about 2,400 (1.1%) were called active. This list was built around the results that the source calls inconclusive (neither active nor inactive); the mix of calls is not that of the screen. The call rests on the fitted dose curve; in most records, active means well fitted inhibition curve with a large enough effect; inconclusive means small, poorly fitted or top-dose-only effect, or effect the other way; inactive means no such curve, though single readings can be large or run the other way. Potencies beside an inconclusive call are fits to weak or partial responses and may not hold up.

Experiment: qHTS Multiplex Assay to Identify Dual Action Probes in a Cell Model of Huntington: Aggregate Formation (GFP); further: nearly all actives have a fitted effect of over 60% in size
Conditions: PC12 HttQ103-GFP aggregates, Acumen cytometry, 40 h; activity change, negative = inhibition: at 46.1 µM (top of the series) unless noted
Procedure, shortened: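 Read-out: GFP aggregate count by laser scanning cytometer (488 nm excitation, 500-530 nm emission, 1–25 µm objects >6 SD above background). Cells: PC12, inducible HTTex1-Q103-GFP, 100 nM tebufenozide; compounds titrated.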
On the % scale 0 is the no-effect control and ±100 the full control effect; potency means the concentration at half of the fitted maximal effect.

| SMILES | Potency | activity change, negative = inhibition |
| --- | --- | --- |
| COc1cccc(C(=O)N2C(C(=O)O)CSC2c2ccccc2Cl)c1 (configuration not stated) | inconclusive: 17.8 µM [activator, single point] | – |
| CCn1ncc(/C=N/O)c1C | inconclusive: 11.2 µM [inhibitor, partial curve] | – |
| COc1cc(-c2nnc(SCc3c(F)cccc3Cl)o2)cc(OC)c1OC | inconclusive: 35.5 µM [inhibitor, single point] | – |
| CCN(CC)S(=O)(=O)c1ccc2oc(SCc3ccc(F)cc3)nc2c1 | inconclusive: 35.5 µM [inhibitor, single point] | – |
| Cc1cccc(NC(=O)c2cnc3ccccn3c2=O)c1 | inconclusive: 1.12 µM [activator, single point] | – |
| O=C(CCl)NCCN1C(=O)S/C(=C\c2cccnc2)C1=O | inconclusive: 35.5 µM [inhibitor, single point] | – |
| CCC(Sc1nc2n[nH]c(C)c2c(=N)n1-c1cccc(Cl)c1C)C(=O)N(CC)CC (configuration not stated) | inconclusive: 2 µM [activator, partial curve] | – |
| CC(C)Nc1ncnc2c1cnn2-c1ccc(Cl)cc1 | active: 22.4 µM | – |
| CCN(CC)S(=O)(=O)c1ccc(C(=O)NCCSc2c[nH]c3ccccc23)cc1 | – | inactive: -10.4% |
| CCCc1ccc(-c2cc(C(=O)NC3=NCCS3)c3ccccc3n2)cc1 | active: 3.98 µM | – |
| CC(NS(=O)(=O)/C=C/c1ccccc1)C(=O)O (configuration not stated) | inconclusive: 2 µM [activator, partial curve] | – |
| Cc1[nH]n(-c2ccccc2)c(=O)c1N=O | active: 0.631 µM | – |
| Cc1ccc(-n2nc3cc(C)c(NC(=S)NC(=O)/C=C/c4ccco4)cc3n2)cc1 | inconclusive: 8.91 µM [activator, partial curve] | – |
| CCOC(=O)C/C(N)=N/NC(=O)c1ccc(Cl)cc1Cl | – | inactive: 6.13% |
| Cc1nn(C(C)C(=O)Nc2sc3c(c2C#N)CCCC3)c(C)c1[N+](=O)[O-] (configuration not stated) | inconclusive: 17.8 µM [inhibitor, single point] | – |
| Cc1cc(C)nc(NN2C(=O)/C(=C/c3ccccc3)SC2=S)n1 | – | inactive: -15.2% |
| Cc1ccc(N2C(=O)CN(Cc3sccc3C)C2=S)cc1C | inconclusive: 31.6 µM [inhibitor, single point] | – |
| Cn1c(NC(=O)CC(C)(C)C)cc(=O)n(C)c1=O | – | inactive: -26.8% |
| O=C(NCc1ccccc1)C1CC(=O)N(c2ccc(OCC(=O)N3CCCC3)cc2)C1 (configuration not stated) | – | inactive: 7.39% |
| N#CC1=C(N)N(c2ncn[nH]2)C2=C(C(=O)CCC2)C1c1ccc(F)cc1 (configuration not stated) | inconclusive: 3.98 µM [inhibitor, single point] | – |
| O=C(Nc1cc(=O)c2ccccc2o1)N1CCOCC1 | inconclusive: 35.5 µM [inhibitor, single point] | – |
| N#Cc1c(Sc2ncc(C(F)(F)F)cc2Cl)nsc1C/C=N\OCc1ccccc1Br | – | inactive: 11.4% |
| Cn1c(=O)[nH]c(Nc2ccccc2)c([N+](=O)[O-])c1=O | – | inactive: -0.429% |
| O=C(Nc1ccncc1)C1CC1c1ccccc1 (configuration not stated) | inconclusive: 20 µM [inhibitor, single point] | – |

| SMILES | Potency | activity change, negative = inhibition |
| --- | --- | --- |
| O=S(=O)(c1ccc2ccccc2c1)N1CCN(C2CCN(Cc3ccccc3)CC2)CC1 | – | inactive: 4.13% |
| O=C1CCN(Cc2nc(-c3ccc(Cl)cc3)no2)CCN1 | – | inactive: -2.75% [at 9.22 µM] |
| O=C(CCc1ccc(Oc2cc([N+](=O)[O-])cc([N+](=O)[O-])c2)cc1)N1CCCCC1 | inconclusive: 15.8 µM [inhibitor, single point] | – |
| CCN(C(=O)CN1CCCCC1)C1(C)C(=O)c2ccccc2C1=O | inconclusive: 6.31 µM [inhibitor, partial curve] | – |
| CCN(CC)S(=O)(=O)c1cccc(NC2=NCCCCC2)c1 | – | inactive: -5.63% [at 9.22 µM] |
| O=S(=O)(NCc1cn2ccsc2n1)c1ccc(Oc2ccccc2)cc1 | inconclusive: 8.91 µM [inhibitor, partial curve] | – |
| CCc1nc2ccc(F)cc2c(C(=O)NC2CCCCC2C)c1C (configuration not stated) | – | inactive: -6.03% |
| O=C(N/N=C/c1sc(N2CCOCC2)nc1-c1ccccc1)c1ccc(O)cc1 | inconclusive: 1.58 µM [activator, full curve] | – |
| CC(C)OC(=O)CCNc1n[nH]c(=O)[nH]c1=O | inconclusive: 3.55 µM [inhibitor, single point] | – |
| CCCNc1ccc(C(=O)OCC)cc1[N+](=O)[O-] | inconclusive: 0.0002 µM [inhibitor, full curve, poor fit] | – |
| CCOC(=O)c1cc2c(nc1N)CCCC2 | – | inactive: -11% [at 9.22 µM] |
| C/C(=N\NC(=O)CSc1nc2ccccc2c(=O)n1-c1ccccc1C)c1cccs1 | inconclusive: 35.5 µM [activator, single point] | – |
| CCN1CCN(C(=S)c2ccc(Cl)cc2)CC1 | – | inactive: 13% |
| CCCCn1c(SCC(=O)N(CC)C2CCS(=O)(=O)C2)nc2cc(S(N)(=O)=O)ccc21 (configuration not stated) | inconclusive: 12.6 µM [activator, partial curve] | – |
| Cc1ccc2c(c1Br)/C(=N/N1C(=O)c3ccccc3C1=O)C(=O)N2 | inconclusive: 5.62 µM [inhibitor, single point] | – |
| O=C(CSc1ncn(-c2ccccc2)n1)NCc1ccccc1 | – | inactive: 1.68% |
| COc1ccc(C(CCNC(C)c2ccccc2)c2ccc(F)cc2)cc1 (configuration not stated) | inconclusive: 31.6 µM [inhibitor, single point] | – |
| Cc1ccc(-c2noc(CN(C(=O)C(c3ccccc3)c3ccccc3)C(C)C)n2)cc1 | inconclusive: 14.1 µM [inhibitor, single point] | – |
| N=C(N)SCc1ccccc1Cl | inconclusive: 3.98 µM [activator, full curve, poor fit] | – |
| COC(=O)c1ccc2c(c1)NC(=O)CS2 | – | inactive: 13.2% |
| CCOc1ccc(-c2nnc(SCc3nnc(-c4ccccc4)o3)n2-c2ccccc2F)cc1 | inconclusive: 12.6 µM [inhibitor, single point] | – |
| O=C(N/N=C/c1cccs1)c1cc(-c2ccc3ccccc3c2)n[nH]1 | inconclusive: 0.631 µM [activator, partial curve] | – |
| CCCCNC(=O)CSc1nccn1Cc1ccccc1 | inconclusive: 35.5 µM [activator, single point] | – |
| COc1cccc(N=C2C(=O)N3CCCc4cccc2c43)c1 | inconclusive: 8.91 µM [activator, partial curve, poor fit] | – |

As a short view, 13 of the compounds above:

| SMILES | Potency | activity change, negative = inhibition |
| --- | --- | --- |
| N#Cc1c(Sc2ncc(C(F)(F)F)cc2Cl)nsc1C/C=N\OCc1ccccc1Br | – | inactive: 11.4% |
| Cn1c(=O)[nH]c(Nc2ccccc2)c([N+](=O)[O-])c1=O | – | inactive: -0.429% |
| O=C(Nc1ccncc1)C1CC1c1ccccc1 (configuration not stated) | inconclusive: 20 µM [inhibitor, single point] | – |
| O=S(=O)(c1ccc2ccccc2c1)N1CCN(C2CCN(Cc3ccccc3)CC2)CC1 | – | inactive: 4.13% |
| O=C1CCN(Cc2nc(-c3ccc(Cl)cc3)no2)CCN1 | – | inactive: -2.75% [at 9.22 µM] |
| O=C(CCc1ccc(Oc2cc([N+](=O)[O-])cc([N+](=O)[O-])c2)cc1)N1CCCCC1 | inconclusive: 15.8 µM [inhibitor, single point] | – |
| CCN(C(=O)CN1CCCCC1)C1(C)C(=O)c2ccccc2C1=O | inconclusive: 6.31 µM [inhibitor, partial curve] | – |
| CCN(CC)S(=O)(=O)c1cccc(NC2=NCCCCC2)c1 | – | inactive: -5.63% [at 9.22 µM] |
| O=S(=O)(NCc1cn2ccsc2n1)c1ccc(Oc2ccccc2)cc1 | inconclusive: 8.91 µM [inhibitor, partial curve] | – |
| CCc1nc2ccc(F)cc2c(C(=O)NC2CCCCC2C)c1C (configuration not stated) | – | inactive: -6.03% |
| O=C(N/N=C/c1sc(N2CCOCC2)nc1-c1ccccc1)c1ccc(O)cc1 | inconclusive: 1.58 µM [activator, full curve] | – |
| CC(C)OC(=O)CCNc1n[nH]c(=O)[nH]c1=O | inconclusive: 3.55 µM [inhibitor, single point] | – |
| CCCNc1ccc(C(=O)OCC)cc1[N+](=O)[O-] | inconclusive: 0.0002 µM [inhibitor, full curve, poor fit] | – |

(continued)

| SMILES | Potency | activity change, negative = inhibition |
| --- | --- | --- |
| COc1ccc(CNc2ccc3cn[nH]c3c2)c(OC)c1OC | inconclusive: 0.447 µM [activator, single point] | – |
| CCN(CC)S(=O)(=O)c1ccc(N/N=C/c2ccc(O)cc2)nc1 | inconclusive: 3.98 µM [activator, full curve] | – |
| CCC(c1nnnn1C(C)(C)C)N1CCN(c2cc(Cl)ccc2C)CC1 (configuration not stated) | inconclusive: 15.8 µM [inhibitor, single point] | – |
| CC1Sc2ccc(Cl)cc2-c2nc(N)ncc21 (configuration not stated) | inconclusive: 11.2 µM [inhibitor, partial curve] | – |
| Cc1ccc2c(c1)c1ccc3c(c1n2C)C(=O)C=CC3=O | inconclusive: 5.62 µM [inhibitor, single point] | – |
| CNc1nc(C)c(C#N)c(-c2ccccc2)c1C(C)=O | inconclusive: 11.2 µM [inhibitor, partial curve] | – |
| COc1cccc(-c2nc(-c3ccccc3)[nH]c(=O)c2C#N)c1 | inconclusive: 35.5 µM [inhibitor, single point] | – |
| COC(=O)Cn1nc(-c2ccccc2)c2ccccc21 | inconclusive: 35.5 µM [inhibitor, single point] | – |
| CCCC[C@@H]1C[C@H]1[C@@H](NC(=O)c1cccs1)c1ccc(Cl)cc1 | inconclusive: 35.5 µM [inhibitor, single point] | – |
| CNC(=S)N/N=C/c1cn(CCOc2ccccc2OC)c2ccccc12 | inconclusive: 3.55 µM [activator, full curve, poor fit] | – |
| CCOc1ccc(NCC(=O)c2ccc(C)cc2)cc1 | active: 11.2 µM | – |
| COc1ccc(CCNC(=O)CN(C)S(=O)(=O)c2cccs2)cc1OC | – | inactive: 6.44% |
| Cn1c(SCC(=O)N2CCCc3ccccc32)nc2ccccc2c1=O | active: 7.94 µM | – |
| CC(C)OCCCn1c(=S)[nH]c2ccc(N3CCOCC3)cc2c1=O | inconclusive: 35.5 µM [inhibitor, single point] | – |
| N#CCSc1nnc(COc2cccc3ccccc23)n1-c1ccccc1 | inconclusive: 35.5 µM [inhibitor, single point] | – |
| CCN(c1ccc(NS(=O)(=O)c2cc(Cl)ccc2Cl)cc1)C(C)C | active: 10 µM | – |
| CCOC(=O)c1c(C)[nH]c(C2=NNC(=Nc3cccc(Cl)c3)SC2)c1C | inconclusive: 25.1 µM [inhibitor, single point] | – |
| CC(C)Oc1cccc(-c2cc(C(=O)N3CCN(c4ncccn4)CC3)c3ccccc3n2)c1 | inconclusive: 22.4 µM [inhibitor, single point] | – |
| Cc1cc(-c2ccccc2)nc2cc(C(=O)N(Cc3ccccc3)Cc3ccccc3)nn12 | active: 12.6 µM | – |
| CSc1nc(-c2ccccc2)nc(C(Cl)Cl)n1 | active: 11.2 µM | – |
| O=C(Nc1ccccc1)N1CCC(C(=O)N(Cc2ccco2)Cc2cccs2)CC1 | inconclusive: 12.6 µM [activator, single point] | – |
| O=C(c1cccc([N+](=O)[O-])c1)N1CCN(C/C=C/c2ccccc2)CC1 | inconclusive: 3.98 µM [inhibitor, single point] | – |
| CCNCCNC(=O)c1c(O)c2ccccc2n(CC)c1=O | inconclusive: 1.26 µM [inhibitor, single point] | – |
| Cn1cc(C(=O)c2ccc(Cl)cc2Cl)cc1C(=O)N/N=C(\N)COc1ccc(Cl)cc1Cl | inconclusive: 28.2 µM [inhibitor, single point] | – |
